The values that follow come from PMC5261807 (2017).

Amino acid sequences for entries named in this document (tags omitted).
UniProt Q05471: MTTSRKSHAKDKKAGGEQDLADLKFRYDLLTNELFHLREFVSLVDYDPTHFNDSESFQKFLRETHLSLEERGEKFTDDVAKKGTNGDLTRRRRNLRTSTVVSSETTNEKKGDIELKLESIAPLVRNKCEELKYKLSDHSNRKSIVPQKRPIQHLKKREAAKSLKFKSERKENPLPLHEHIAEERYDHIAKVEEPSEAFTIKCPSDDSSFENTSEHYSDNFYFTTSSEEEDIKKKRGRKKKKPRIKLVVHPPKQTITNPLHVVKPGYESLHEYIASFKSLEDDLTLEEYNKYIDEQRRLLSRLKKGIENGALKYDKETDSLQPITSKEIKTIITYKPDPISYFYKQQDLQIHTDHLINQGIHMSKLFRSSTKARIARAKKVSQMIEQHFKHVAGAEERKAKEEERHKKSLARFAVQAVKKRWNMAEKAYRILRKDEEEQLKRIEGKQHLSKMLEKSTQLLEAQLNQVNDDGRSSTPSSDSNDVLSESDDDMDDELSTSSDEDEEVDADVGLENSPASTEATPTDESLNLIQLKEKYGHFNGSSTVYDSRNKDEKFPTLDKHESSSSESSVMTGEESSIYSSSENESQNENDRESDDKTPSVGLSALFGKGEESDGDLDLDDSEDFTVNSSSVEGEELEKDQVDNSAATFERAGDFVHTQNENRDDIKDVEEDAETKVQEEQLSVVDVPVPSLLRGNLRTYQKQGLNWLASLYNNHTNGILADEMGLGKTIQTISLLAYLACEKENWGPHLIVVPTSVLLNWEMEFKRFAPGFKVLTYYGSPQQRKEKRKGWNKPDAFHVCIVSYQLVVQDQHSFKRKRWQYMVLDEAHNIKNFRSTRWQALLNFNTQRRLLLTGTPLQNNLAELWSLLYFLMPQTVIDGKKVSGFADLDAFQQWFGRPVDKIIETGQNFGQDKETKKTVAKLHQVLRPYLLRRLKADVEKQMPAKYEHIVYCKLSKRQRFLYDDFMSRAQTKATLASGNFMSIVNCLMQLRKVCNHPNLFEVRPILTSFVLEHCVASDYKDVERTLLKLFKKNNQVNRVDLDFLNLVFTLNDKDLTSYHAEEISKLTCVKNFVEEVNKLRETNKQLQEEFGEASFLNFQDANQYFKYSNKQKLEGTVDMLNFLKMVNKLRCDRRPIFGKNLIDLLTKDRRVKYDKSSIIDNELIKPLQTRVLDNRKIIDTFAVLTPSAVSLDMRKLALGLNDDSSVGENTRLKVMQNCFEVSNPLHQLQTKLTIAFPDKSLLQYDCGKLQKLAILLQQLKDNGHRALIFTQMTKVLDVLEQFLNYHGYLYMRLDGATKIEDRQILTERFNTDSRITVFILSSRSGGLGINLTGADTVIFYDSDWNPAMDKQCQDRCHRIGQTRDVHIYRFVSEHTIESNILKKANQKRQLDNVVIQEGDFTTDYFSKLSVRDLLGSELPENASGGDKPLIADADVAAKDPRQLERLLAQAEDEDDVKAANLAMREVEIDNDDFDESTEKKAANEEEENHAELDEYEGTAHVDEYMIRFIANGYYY

Results are given in words; binding and its absence hold for the method and conditions named. In cells and extracts the contact can be indirect. Here binding means that the protein was enriched with, or labelled near, the bait; the list need not be complete. For part of these data: A no says only that the protein was not detected with the bait. Tags and fused reporters may be left off the sequences shown.

What all share (test): affinity purification with mass spectrometry; tandem affinity purification from vegetative cells (Bdf1-TAP, Bdf2-TAP, Swr1-TAP), calmodulin eluates, nanoLC-MS/MS, iBAQ; Bdf2 also found with Bdf1-TAP in the yaf9Δ strain
The target in assay [1] is T1, Bdf2-TAP (S. cerevisiae) (UniProt Q07442).
T1 sequence: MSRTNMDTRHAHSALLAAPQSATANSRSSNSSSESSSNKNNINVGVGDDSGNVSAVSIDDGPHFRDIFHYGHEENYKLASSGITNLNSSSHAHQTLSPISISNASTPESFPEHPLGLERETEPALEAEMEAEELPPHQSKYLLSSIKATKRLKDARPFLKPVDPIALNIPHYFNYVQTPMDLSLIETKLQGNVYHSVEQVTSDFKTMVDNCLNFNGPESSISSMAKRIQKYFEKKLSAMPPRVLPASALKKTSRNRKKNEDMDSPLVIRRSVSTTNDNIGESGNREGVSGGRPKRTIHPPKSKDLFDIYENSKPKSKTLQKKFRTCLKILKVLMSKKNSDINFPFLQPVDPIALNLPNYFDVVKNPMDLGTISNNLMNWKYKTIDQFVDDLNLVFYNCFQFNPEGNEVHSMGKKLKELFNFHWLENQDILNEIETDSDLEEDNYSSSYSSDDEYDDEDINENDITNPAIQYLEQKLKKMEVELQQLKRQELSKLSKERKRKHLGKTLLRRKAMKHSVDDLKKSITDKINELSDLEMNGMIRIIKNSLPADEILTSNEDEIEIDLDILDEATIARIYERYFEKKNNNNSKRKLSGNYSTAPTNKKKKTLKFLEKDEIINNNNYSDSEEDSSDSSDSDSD

For assay [2], the target named is Swr1-TAP (S. cerevisiae) (UniProt Q05471).
Assay [3] addresses T2, Bdf1-TAP (S. cerevisiae) (UniProt P35817).
T2 sequence: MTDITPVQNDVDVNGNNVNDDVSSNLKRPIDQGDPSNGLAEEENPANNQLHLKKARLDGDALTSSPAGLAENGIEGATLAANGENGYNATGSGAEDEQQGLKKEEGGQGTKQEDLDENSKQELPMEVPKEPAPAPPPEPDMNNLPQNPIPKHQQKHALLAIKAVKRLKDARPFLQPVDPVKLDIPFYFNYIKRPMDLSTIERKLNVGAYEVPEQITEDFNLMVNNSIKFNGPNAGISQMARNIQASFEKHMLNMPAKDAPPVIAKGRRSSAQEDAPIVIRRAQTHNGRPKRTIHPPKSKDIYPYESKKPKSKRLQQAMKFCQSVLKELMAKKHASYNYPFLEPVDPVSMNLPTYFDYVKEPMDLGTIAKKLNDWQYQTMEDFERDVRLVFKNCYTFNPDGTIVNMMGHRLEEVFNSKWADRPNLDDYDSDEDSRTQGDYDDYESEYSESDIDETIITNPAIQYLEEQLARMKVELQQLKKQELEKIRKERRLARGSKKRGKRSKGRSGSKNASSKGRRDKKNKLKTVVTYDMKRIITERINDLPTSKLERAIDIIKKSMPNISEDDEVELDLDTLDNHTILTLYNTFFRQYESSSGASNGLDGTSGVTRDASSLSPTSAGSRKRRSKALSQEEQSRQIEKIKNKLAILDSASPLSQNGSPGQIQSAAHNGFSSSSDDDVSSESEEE

B1: Bdf1 (wild-type, untagged) (protein, UniProt P35817 1-686)
chain: T2 sequence
In the case of B1, in assay [1], the binding entry was “binds”.

B2: Bdf2 (untagged) (protein, UniProt Q07442 1-638)
chain: T1 sequence
Consider B2, for which the binding result in assay [2] is listed as “no binding”; in assay [3], “binds”.
